Results taken from patent US8937167B2 (Washington University, priority 2009, dated 2015).
At least one structure is not confirmed: it was looked up by name or label, or the drawing left a doubt. Some results were stated once for a whole list of compounds, not compound by compound.

Sequences of proteins named here, by UniProt entry; tags and fusion partners are left off.
UniProt Q1R2J4, entry or part of it: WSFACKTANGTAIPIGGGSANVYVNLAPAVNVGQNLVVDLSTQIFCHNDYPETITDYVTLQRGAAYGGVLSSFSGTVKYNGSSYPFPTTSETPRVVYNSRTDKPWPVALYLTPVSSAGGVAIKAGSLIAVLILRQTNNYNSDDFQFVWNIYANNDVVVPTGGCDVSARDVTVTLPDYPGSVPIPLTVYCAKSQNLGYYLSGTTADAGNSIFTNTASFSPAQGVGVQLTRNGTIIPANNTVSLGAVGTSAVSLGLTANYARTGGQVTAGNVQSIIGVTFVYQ

Target: FimH (Escherichia coli, UniProt Q1R2J4)
Settings: for fold improvement in HA potency: relative to parent phenyl mannoside 3a
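Further: hemagglutination inhibition of guinea pig erythrocytes agglutinated by type 1 piliated uropathogenic E. coli via FimH mannose binding, quantified through serial dilutions of compound.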

SMILES | HAI Titer EC>90 [µM] | fold improvement in HA potency
CC(=O)Oc1cccc(OC2OC(CO)C(O)C(O)C2O)c1 (stereo not drawn) [Compound 1ZFH236, [3-[3,4,5-trihydroxy-6-(hydroxymethyl)tetrahydropyran-2-yl]oxyphenyl]acetate] | 16.000 | –
OCC1OC(Oc2ccccc2Cl)C(O)C(O)C1O (stereo not drawn) [Compound 3g] | – | greater than 5 fold
COC(=O)c1cccc(OC2OC(CO)C(O)C(O)C2O)c1 (stereo not drawn) [Compound 3j] | – | greater than 5 fold
